# From PubChem BioAssay AID1347076 (National Center for Advancing Translational Sciences (NCATS), 2019)
# About 13,000 (3.2%) of roughly 400,000 compounds were called active. Inconclusive means that the source gave no clear call. Such entries were picked first, then a sample of the others. Calls come from the whole dose curve; as a rule, active = well fitted cell-killing curve with a large enough effect; inconclusive = small, poorly fitted or top-dose-only effect, or effect the other way; inactive = flat fitted curve, though single readings scatter. Where the call is inconclusive, the potency comes from a doubtful curve fit.
# Test: qHTS assay for MDR1-selective chemotherapeutics: Primary screen using the drug-selected MDR subline cells KB-V1; note: nearly all actives have a fitted effect of over 60% in size
# Details: KB-V1 MDR cells viability, CellTiter-Glo, 72 h; activity change, negative = cytotoxicity: at 46.1 µM (top of the series)
# Summary of the method: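 Cytotoxicity toward P-gp-expressing KB-V1 cells was determined as loss of CellTiter-Glo luminescence after 72 h at 37 degrees C. Compounds were tested in quantitative HTS format across a concentration range, with curves fitted to normalized data.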
# % is set by controls: 0 for no effect and ±100 for the full control effect; potency is the fitted concentration of half-maximal effect.
SMILES,Potency,"activity change, negative = cytotoxicity"
CN(CC(CC(=O)O)c1ccccc1)S(=O)(=O)c1ccc(Br)cc1 (configuration not stated),"inconclusive: 29.1 µM [rising, single point]",–
CC(C)c1cccc(-c2csc(C(C)(O)c3ccc(F)c(F)c3)n2)c1 (configuration not stated),–,inconclusive: -28.2%
Cc1ccc(S(=O)(=O)N2CCN(CC(=O)N/N=C/c3cc([N+](=O)[O-])ccc3Cl)CC2)cc1,–,inconclusive: -47.4%
COCCCNC(=O)C[C@@H]1C[C@@]2(C(=O)OC)CC(C)(C)CC=C2N(Cc2cccc3ccccc23)C1=O,"inconclusive: 6.51 µM [cytotoxic, partial curve]",–
O=C1CN(C(=O)COC(=O)c2ccc[n+]([O-])c2)c2ccccc2N1,"inconclusive: 3.26 µM [cytotoxic, full curve, poor fit]",–
Cc1ccc(C)c(NC(=O)CCn2nc(C)c3c(C)n(-c4ccccc4)nc3c2=O)c1,"inconclusive: 29.1 µM [rising, single point]",–
Cc1ccc(/C=C/C(=O)c2nc3ccccc3[nH]2)cc1,"inconclusive: 18.4 µM [cytotoxic, single point]",–
COc1cccc(C=O)c1OCCN1C(=O)c2ccccc2C1=O,–,inactive: -2.54%
Cc1c(Cl)cnc(NC(=O)COC(=O)C2CC2)c1Cl,"inconclusive: 18.4 µM [rising, single point]",–
COc1ccc(NC(=S)N(CCCN2CCOCC2)Cc2ccco2)cc1,"inconclusive: 23.1 µM [cytotoxic, single point]",–
CCN(CC)C(=O)[C@H]1C[C@H](CC(=O)NC/C=C(\C)CCC=C(C)C)C(=O)N2CCc3c([nH]c4cc(CCC(=O)N(C)C)ccc34)[C@]12C,"inconclusive: 29.1 µM [cytotoxic, partial curve, poor fit]",–
O=C(NCc1ccco1)C(c1ccccc1)N(CC1CCCO1)C(=O)Cn1nnc2ccccc21 (configuration not stated),active: 20.6 µM,–
O=C1c2ccccc2C(c2nnnn2-c2ccc3c(c2)OCCO3)N1Cc1ccc(F)cc1 (configuration not stated),"inconclusive: 7.31 µM [cytotoxic, partial curve]",–
COc1ccc(C(=O)Nc2cc3c4c(c2)C(C)C(=O)N4CCC3)cc1OC (configuration not stated),"inconclusive: 10.3 µM [cytotoxic, partial curve]",–
CC(=O)Oc1c(-c2ccc(Br)o2)oc2ccccc2c1=O,"inconclusive: 29.1 µM [cytotoxic, single point]",–
CCCCSc1ncnc2[nH]ncc12,"inconclusive: 18.4 µM [cytotoxic, single point]",–
Cc1ccc(C)c(NC(=O)c2ccc3c(c2)CCN3S(C)(=O)=O)c1,inactive,–
OC(CNCCC1C=Nc2ccccc21)Cn1c2ccc(Cl)cc2c2cc(Cl)ccc21 (configuration not stated),"inconclusive: 23.1 µM [cytotoxic, single point]",–
CC(C)(CO)CNC(=O)CCc1nnc(Cc2ccc(-c3ccccc3)cc2)o1,"inconclusive: 20.6 µM [cytotoxic, single point]",–
Oc1ccc(Br)cc1/C=N/n1c(COc2ccccc2)n[nH]c1=S,–,inactive: -0.378%
O=C(/C=C/c1ccccc1Cl)c1ccccc(=O)c1O,active: 18.4 µM,–

# Quoted from the listing.
# For Potency, O=C1c2ccccc2C(c2nnnn2-c2ccc3c(c2)OCCO3)N1Cc1ccc(F)cc1 (configuration not stated) shows inconclusive: 7.31 µM [cytotoxic, partial curve]
# For Potency, COCCCNC(=O)C[C@@H]1C[C@@]2(C(=O)OC)CC(C)(C)CC=C2N(Cc2cccc3ccccc23)C1=O shows inconclusive: 6.51 µM [cytotoxic, partial curve]

# Remaining list, next part.

SMILES,Potency,"activity change, negative = cytotoxicity"
COc1ccc(C)cc1S(=O)(=O)Nc1cc2c3c(c1)C(C)C(=O)N3CCC2 (configuration not stated),"inconclusive: 16.4 µM [cytotoxic, single point]",–
CC(C)Cn1c(N)c(C(=O)COC(=O)c2c(F)cccc2F)c(=O)n(C)c1=O,–,inactive: -23.5%
Cc1cc(C(=O)COC(=O)c2ccc(O)cc2)c(C)n1CC1COc2ccccc2O1 (configuration not stated),"inconclusive: 29.1 µM [cytotoxic, single point]",–
COc1ccc(C2NC(C(=O)O)CS2)cc1COCC(F)(F)F (configuration not stated),"inconclusive: 35.5 µM [rising, single point]",–
CCc1ccc(S(=O)(=O)N2CCN(c3ccccc3OC)CC2)cc1,"inconclusive: 29.1 µM [cytotoxic, partial curve, poor fit]",–
CCCCCCN1C[C@@H](n2cc(-c3ccc(F)cc3)nn2)[C@H](O)C[C@@H]1c1ccc(OC)cc1,"inconclusive: 25.9 µM [cytotoxic, partial curve]",–
COc1ccccc1Cc1c(-c2cccc(Cl)c2)nc2ccc(C)cn12,"inconclusive: 29.1 µM [cytotoxic, single point]",–
Cc1ccccc1Cn1c(=O)n(CCc2ccccc2)c(=O)c2c(C)c(C)sc21,–,inactive: 15.1%
O=C(CN1CCN(Cc2ccccc2)CC1)NC(c1ccccc1)c1ccccc1,"inconclusive: 4.61 µM [cytotoxic, partial curve]",–
Cc1ccc2c(c1)C1(SC(C)C(=O)N1c1ccc(Cl)cc1)C(=O)N2 (configuration not stated),"inconclusive: 20.6 µM [cytotoxic, single point]",–
CC(C)Cc1cc(C(=O)N2CCCC(CO)(Cc3ccc(F)cc3)C2)no1 (configuration not stated),–,inactive: -18.1%
Cc1oc(S(=O)(=O)N2CCOCC2)cc1C(=O)Nc1ccc(F)cc1,"inconclusive: 6.51 µM [cytotoxic, partial curve]",–
O=C(c1ccccc1)c1ccc2cc(O)ccc2c1,"inconclusive: 29.1 µM [cytotoxic, partial curve, poor fit]",–
O=C(C[C@H]1C(=O)N(CCc2ccccc2)C[C@@H]1Cc1ccccc1)Nc1ccc(Br)cc1,"inconclusive: 20.6 µM [cytotoxic, single point]",–
CC1(C)Cc2c(c(N3CCOCC3)nc3sc4c(NCCN)ncnc4c23)CO1,"inconclusive: 29.1 µM [rising, single point]",–
Cc1csc(N/N=C/c2ccccn2)n1,"inconclusive: 25.9 µM [cytotoxic, single point]",–
Cc1ccc(S(=O)(=O)N(C)Cc2nc(-c3ccncc3)no2)cc1,"inconclusive: 25.9 µM [cytotoxic, single point]",–
Cn1c(=O)c2c(nc(NCc3ccccc3)n2CCCc2ccccc2)n(C)c1=O,active: 2.91 µM,–
O=C(c1ccccc1F)N1CCN(c2cccc(C(F)(F)F)c2)CC1,"inconclusive: 16.4 µM [cytotoxic, partial curve]",–
COc1cc(OC)c(C2Nc3ccccc3-c3nnc(SCc4ccccc4)nc3O2)cc1OC (configuration not stated),–,inactive: 0.448%
COc1ccc(OC)c(C2N=C(N)Nc3nc4ccccc4n32)c1 (configuration not stated),"inconclusive: 29.1 µM [rising, single point]",–
